Screening data, single-dose tests

Sequences of proteins named here, by UniProt entry; tags and fusion partners are left off. Residues count along the entry.
UniProt Q4DA54, 1-478: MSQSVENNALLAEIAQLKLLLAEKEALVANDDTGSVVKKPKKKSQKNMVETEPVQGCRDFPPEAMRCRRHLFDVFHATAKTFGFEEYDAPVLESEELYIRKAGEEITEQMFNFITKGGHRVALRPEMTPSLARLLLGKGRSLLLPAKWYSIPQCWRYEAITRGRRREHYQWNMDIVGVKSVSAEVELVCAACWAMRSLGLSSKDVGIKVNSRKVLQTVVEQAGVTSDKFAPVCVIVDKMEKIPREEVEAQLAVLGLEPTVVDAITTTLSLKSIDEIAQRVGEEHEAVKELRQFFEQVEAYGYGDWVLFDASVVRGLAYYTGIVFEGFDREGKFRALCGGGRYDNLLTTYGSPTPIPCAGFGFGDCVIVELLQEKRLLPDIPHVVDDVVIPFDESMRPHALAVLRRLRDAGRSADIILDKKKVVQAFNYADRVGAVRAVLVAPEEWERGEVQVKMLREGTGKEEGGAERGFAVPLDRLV
UniProt P9WNZ1, whole entry: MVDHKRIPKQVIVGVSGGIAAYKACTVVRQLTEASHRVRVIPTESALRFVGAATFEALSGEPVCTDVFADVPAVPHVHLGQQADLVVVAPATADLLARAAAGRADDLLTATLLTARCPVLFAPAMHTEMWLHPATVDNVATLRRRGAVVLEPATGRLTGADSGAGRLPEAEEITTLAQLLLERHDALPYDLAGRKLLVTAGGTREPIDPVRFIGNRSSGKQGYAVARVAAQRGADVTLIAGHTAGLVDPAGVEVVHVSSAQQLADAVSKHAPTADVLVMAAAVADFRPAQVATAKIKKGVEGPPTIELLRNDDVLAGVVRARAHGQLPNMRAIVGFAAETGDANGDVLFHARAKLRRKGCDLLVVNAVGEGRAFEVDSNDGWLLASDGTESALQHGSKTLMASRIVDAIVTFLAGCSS

Source: ChEMBL document CHEMBL3988442, “University of Dundee, Small-Polar-MMV Screening Library” (2021).

Toxoplasma: 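Assay of Toxoplasma gondii numbers, read through their beta-galactosidase reporter with a colour substrate. Compounds at 10 µM. The record gives no direction; the compounds picked for IC50 retests had high values, so higher reads as fewer parasites. Of about 67,000 compounds tested this way, about 260 (0.38%) reached 50% or more in at least one test.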
TcHisRS: 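Enzyme assay of histidyl-tRNA synthetase; the read-out is not stated. Target: Histidine-tRNA ligase, Trypanosoma cruzi CL Brener (UniProt Q4DA54). Tested at 30 µM. Direction is inferred from retests: higher values go with stronger inhibition. Size under these conditions: about 69,000 compounds, about 31 of them at 50% or above in at least one test.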
CoaBC: 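Coenzyme A biosynthesis protein CoaBC, Mycobacterium tuberculosis (UniProt P9WNZ1). Enzyme assay of CoaBC with a phosphate dye (Biomol Green) read at 650 nm. Concentration: 30 µM. Direction is inferred from only a few compounds that gave an IC50; most scored high, so higher reads as stronger inhibition. Most strong results did not repeat in a second test. Size under these conditions: about 67,000 compounds, about 40 of them at 50% or above in at least one test.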
Leishmania in macrophages: 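Cell assay of Leishmania donovani living inside macrophages; the read-out is not stated. Tested at 30 µM. Higher reads as stronger inhibition (inferred: compounds with an IC50 in retests scored well above the rest). Size under these conditions: about 69,000 compounds, about 1,000 of them at 50% or above in at least one test.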

Each number is a percent effect as filed. The record does not define 0% and 100%; most values in the screen are far below 50% and negative numbers occur (in some assays of this library far below -100). The compounds are a random part of those screened.

{"smiles": "O=C(NCC(F)F)c1ccc(S(=O)(=O)NCCc2c[nH]cn2)cc1", "Toxoplasma": 7.65, "TcHisRS": 10.4, "CoaBC": 2.814, "Leishmania in macrophages": -9.289}
{"smiles": "Cc1noc(C2CCN(Cc3cc(=O)n(C)c(=O)n3C)CC2)n1", "Toxoplasma": 7.493, "TcHisRS": -6.415, "CoaBC": -2.477, "Leishmania in macrophages": -0.8019}
{"smiles": "Cc1cnc(N2CC3(CCN(Cc4cccnc4)C3)C2)nc1", "TcHisRS": 0, "CoaBC": 3.99}
{"smiles": "CCCC(=O)N1CCN(Cc2cc(-c3ccncc3)nn2C)CC1", "Toxoplasma": -17.44, "TcHisRS": 4.255, "CoaBC": 1.471, "Leishmania in macrophages": -13.72}
{"smiles": "Cc1cc(CN2CC[C@H]3C[C@H](C)O[C@@H]3C2)no1", "TcHisRS": -0.5525, "CoaBC": 7.969}
{"smiles": "CC(=O)N(C)Cc1ncn2c1CN(C(=O)C1CCCO1)CCC2", "stereo": "stereo not given", "Toxoplasma": 16.67, "TcHisRS": 8.543, "CoaBC": 3.342, "Leishmania in macrophages": 7.983}
{"smiles": "O=C(CC1CCCC1)Nc1ccc(-n2cc(Br)cn2)nc1", "Toxoplasma": -4.975, "TcHisRS": -6.433, "CoaBC": -0.5051, "Leishmania in macrophages": -47.29}
{"smiles": "Cc1n[nH]c(C2CN(CCc3cccs3)CCO2)n1", "stereo": "stereo not given", "Toxoplasma": 16.99, "TcHisRS": 2.564, "CoaBC": -8.311, "Leishmania in macrophages": 4.317}
{"smiles": "[H][C@]12C[C@@H](Cn3cncn3)N(C(C)=O)[C@@]1([H])CCN(Cc1nccs1)C2", "Toxoplasma": 5.542, "Leishmania in macrophages": -10.31}
{"smiles": "CC(C)NC(=O)C1CN(C(=O)CCc2ccccc2)CC12CCOCC2", "stereo": "stereo not given", "Toxoplasma": 56.76, "TcHisRS": 6.098, "CoaBC": 2.256, "Leishmania in macrophages": -15.46}
{"smiles": "CC(=O)N1CCC2(CCN(C(=O)c3ccc(C)c(C(F)(F)F)c3)CC2)C1", "Toxoplasma": 4.662, "TcHisRS": -1.639, "CoaBC": -1.673, "Leishmania in macrophages": -2.424}
{"smiles": "CC(C)CCc1nc(CNCC2CN(C)CCO2)cs1", "stereo": "stereo not given", "Toxoplasma": 18.18, "TcHisRS": 6.286, "CoaBC": 2.628, "Leishmania in macrophages": 42.41}
{"smiles": "Cc1cc(NC(=O)C(C)N2CCCN(c3nccs3)CC2)on1", "stereo": "stereo not given", "Toxoplasma": -1.579, "TcHisRS": -1.527, "CoaBC": -3.109, "Leishmania in macrophages": 32.68}
{"smiles": "Cn1cnc2c1CCN(Cc1csc(-c3ccsc3)n1)C2", "Toxoplasma": -9.098, "TcHisRS": 2.29, "CoaBC": 6.218, "Leishmania in macrophages": 21.87}
{"smiles": "OC1(CN2CCCCC2)CCN(c2cc(C(F)(F)F)ccn2)C1", "stereo": "stereo not given", "Toxoplasma": -10.53, "TcHisRS": 12.44, "CoaBC": 0.7407, "Leishmania in macrophages": 21.67}
{"smiles": "O=C1CC(c2cccnc2)c2c(c(C(=O)O)cn2-c2ccccc2)N1", "stereo": "stereo not given", "Toxoplasma": -2.152, "TcHisRS": 2.732, "CoaBC": 2.557, "Leishmania in macrophages": -20.51}
{"smiles": "CC(C)C(=O)NCc1ccnc(Oc2ccc(F)cc2)c1", "Toxoplasma": -6.321, "TcHisRS": 7.882, "CoaBC": -0.641, "Leishmania in macrophages": -11.84}
{"smiles": "c1cnc(NC2COC3(CCN(Cc4cc[nH]n4)CC3)C2)nc1", "stereo": "stereo not given", "TcHisRS": 1.84, "CoaBC": 5.506}
{"smiles": "[H][C@]12CC[C@]([H])(CN(C(=O)c3cccnc3)C1)N(Cc1ccccc1C#N)C2", "Toxoplasma": 3.163, "Leishmania in macrophages": 25.11}
{"smiles": "CCn1c(=O)nc(N)c2c(-c3ccc(OC)cc3)csc21", "Toxoplasma": -9.813, "TcHisRS": -0.5848, "CoaBC": 0.7576, "Leishmania in macrophages": 5.495}
{"smiles": "O=C(O)C(F)(F)F.[H][C@@]12C[C@@H](C(=O)Nc3cccnc3)CN(S(C)(=O)=O)[C@]1([H])CCO2", "Toxoplasma": 3.614, "Leishmania in macrophages": 27.96}
{"smiles": "O=C1NC2(Nc3ncccc31)C(=O)Nc1c2ccc(Cl)c1F", "stereo": "stereo not given", "Toxoplasma": 2.742, "TcHisRS": 3.933, "CoaBC": 1.408, "Leishmania in macrophages": 28.81}
{"smiles": "CCc1nc(C2CCCN(C(=O)NCCOC)C2)no1", "stereo": "stereo not given", "Toxoplasma": 7.301, "TcHisRS": 3.79, "CoaBC": -3.133, "Leishmania in macrophages": -19.75}

2 of the entries, repeated:

SMILES	Toxoplasma	TcHisRS	CoaBC	Leishmania in macrophages
CCCC(=O)N1CCN(Cc2cc(-c3ccncc3)nn2C)CC1	-17.44	4.255	1.471	-13.72
CCn1c(=O)nc(N)c2c(-c3ccc(OC)cc3)csc21	-9.813	-0.5848	0.7576	5.495